Laboratory results: PubChem BioAssay AID652243 (Drosophila RNAi Screening Center, 2013)
The deposit covers about 24,000 reagents; shown is a random part of those that have a named target and a result. Over the whole deposit, 246 (1%) were called active. 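Plates not normalised; calls are printed but the firefly/Renilla ratio behind them is not deposited; fold cut for lowering reported inconsistently.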 The raw values are shown without normalisation. Not given: the amount of reagent.

Screen: 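Knock-downs that decrease or increase androgen receptor reporter signal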 (primary screen)
System: Drosophila S2R+ cells
Knock-down reagent: long dsRNA against Drosophila genes
Timing: 72 h (48 h, then 24 h hormone)
Conditions: synthetic androgen R1881 at 10 nM for 24 h
Measurement: 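Firefly light from an androgen-responsive reporter and Renilla control light per well, raw and unnormalised, for each of two replicates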
Reading the numbers: firefly reporter light: higher = more light from androgen-responsive reporter; Renilla control light: higher = more constitutive control signal (cell number, transfection)
Call rule: 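Hit when the log firefly-to-Renilla ratio dropped or increased by a fixed fold versus the mean of GFP or LacZ controls across duplicate plates; lowering cut given as 1.5 and as 3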
Meaning of the calls: active = hit: reporter lowered or raised; inactive = no hit

dco (discs overgrown) [DRSC16929]
- firefly reporter light, replicate 1: 1.15e5
- firefly reporter light, replicate 2: 1.03e5
- Renilla control light, replicate 1: 6.51e5
- Renilla control light, replicate 2: 5.55e5
- Call: inactive

dco (discs overgrown) [DRSC29211]
- firefly reporter light, replicate 1: 7.95e5
- firefly reporter light, replicate 2: 5.33e5
- Renilla control light, replicate 1: 1.06e6
- Renilla control light, replicate 2: 9.85e5
- Call: inactive

dco (discs overgrown) [DRSC36998]
- Call: inactive

mtSSB (mitochondrial single stranded DNA-binding protein) [DRSC17005]
- firefly reporter light, replicate 1: 2.26e5
- firefly reporter light, replicate 2: 2.12e5
- Renilla control light, replicate 1: 2.75e6
- Renilla control light, replicate 2: 2.95e6
- Call: inactive

Cyp6a14 (Cytochrome P450 6a14) [DRSC07376]
- firefly reporter light, replicate 1: 1.15e5
- firefly reporter light, replicate 2: 1.21e5
- Renilla control light, replicate 1: 1.09e6
- Renilla control light, replicate 2: 9.33e5
- Call: inactive

Cyp6a14 (Cytochrome P450 6a14) [DRSC24704]
- firefly reporter light, replicate 1: 4.01e5
- firefly reporter light, replicate 2: 2.66e5
- Renilla control light, replicate 1: 5.98e5
- Renilla control light, replicate 2: 5.34e5
- Call: inactive

CG7512 [DRSC10863]
- firefly reporter light, replicate 1: 1.18e5
- firefly reporter light, replicate 2: 1.33e5
- Renilla control light, replicate 1: 1.30e6
- Renilla control light, replicate 2: 1.32e6
- Call: inactive

CG42319 [DRSC06645]
- firefly reporter light, replicate 1: 5.54e5
- firefly reporter light, replicate 2: 3.86e5
- Renilla control light, replicate 1: 2.02e6
- Renilla control light, replicate 2: 2.23e6
- Call: inactive

CG42319 [DRSC06646]
- firefly reporter light, replicate 1: 2.40e5
- firefly reporter light, replicate 2: 1.97e5
- Renilla control light, replicate 1: 1.37e6
- Renilla control light, replicate 2: 1.39e6
- Call: inactive

CG42319 [DRSC22426]
- firefly reporter light, replicate 1: 4.84e5
- firefly reporter light, replicate 2: 1.04e6
- Renilla control light, replicate 1: 7.20e5
- Renilla control light, replicate 2: 1.42e6
- Call: inactive

CG42319 [DRSC26059]
- firefly reporter light, replicate 1: 2.91e5
- firefly reporter light, replicate 2: 3.31e5
- Renilla control light, replicate 1: 8.00e5
- Renilla control light, replicate 2: 8.39e5
- Call: inactive

ssp3 (short spindle 3) [DRSC02669]
- firefly reporter light, replicate 1: 1.53e5
- firefly reporter light, replicate 2: 1.30e5
- Renilla control light, replicate 1: 1.28e6
- Renilla control light, replicate 2: 1.21e6
- Call: inactive

ssp3 (short spindle 3) [DRSC02670]
- firefly reporter light, replicate 1: 1.73e5
- firefly reporter light, replicate 2: 1.75e5
- Renilla control light, replicate 1: 1.74e6
- Renilla control light, replicate 2: 2.01e6
- Call: inactive

ssp3 (short spindle 3) [DRSC27298]
- firefly reporter light, replicate 1: 7.34e5
- firefly reporter light, replicate 2: 8.00e5
- Renilla control light, replicate 1: 8.28e5
- Renilla control light, replicate 2: 7.66e5
- Call: inactive

In a second layout: entries from further up.
gene | amplicon | firefly reporter light, replicate 1 | firefly reporter light, replicate 2 | Renilla control light, replicate 1 | Renilla control light, replicate 2 | Call
ssp3 (short spindle 3) | DRSC02669 | 1.53e5 | 1.30e5 | 1.28e6 | 1.21e6 | inactive
ssp3 (short spindle 3) | DRSC02670 | 1.73e5 | 1.75e5 | 1.74e6 | 2.01e6 | inactive
